According to patent US20050203288A1 (DEUTSCHES KREBSFORSCHUNGSZENTRUM STIFUNG DES OFFENTLICHEN …, published 2005):
These are yes or no findings as the source states them, for the method shown. Some entries that bind do so weakly or less than the wild type.

T1: Livin-β (UniProt Q96CA5-2 1-280, limits assumed)
T1 construct: the beta isoform is meant; also called Livin (beta)
T1 sequence (looked up): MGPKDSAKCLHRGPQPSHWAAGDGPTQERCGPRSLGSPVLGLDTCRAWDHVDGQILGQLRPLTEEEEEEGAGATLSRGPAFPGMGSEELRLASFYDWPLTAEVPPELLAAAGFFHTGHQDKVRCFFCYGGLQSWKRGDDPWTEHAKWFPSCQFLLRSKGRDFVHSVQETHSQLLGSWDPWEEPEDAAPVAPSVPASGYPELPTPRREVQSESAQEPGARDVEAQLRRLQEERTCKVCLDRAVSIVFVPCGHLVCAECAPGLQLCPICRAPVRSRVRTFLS

B1: peptide number 40 (peptide, not shown: large carriers)
chain: GSGCVRIRVGIVRRMLFLRFVFLVP
notes: that construct is not described for linear peptides

Each binder was assayed against livin (UniProt P04386) (assay: yeast two-hybrid, peptide in trxA scaffold).

Row | binding | Binder
1 | binds | VSYRTCTAGGQMSRWRLFII (peptide, not shown: large carriers) [SEQ ID NO 5]
2 | binds | ALLMFGCPNWFASWRLHLFI (peptide, not shown: large carriers) [SEQ ID NO 38]
3 | binds | WLGTFSGTCSTAFYFPLGVP (peptide, not shown: large carriers) [SEQ ID NO 7]
4 | binds | YKWRMGVYLSGVRLMRAFII (peptide, not shown: large carriers) [SEQ ID NO 4]
5 | binds | TNFRPSPTFHAILLWPNTFS (peptide, not shown: large carriers) [SEQ ID NO 8]

What follows are binders tested against T1, Livin-β (assay: yeast two-hybrid).

Row | binding | Binder
6 | binds | B1
